Measurements reported in PubChem BioAssay AID1259308 (NCATS, 2017)

- Purpose: 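Genes whose loss raises luciferase production in HEK293 cells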 (primary screen)
- Cell system: human HEK293 embryonic kidney cells stably expressing firefly luciferase (HEK-CMV-Luc2-Hygro)
- Reagent: single siRNA against human genes, 0.8 pmol siRNA per well
- Time to read-out: 72 h
- Detection: 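Reporter luminescence and viable-cell signal on separate replicate plates, given as percent of non-targeting control and median/MAD z-scores, plus per-cell luciferase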
- Direction: total luciferase, z-score and total luciferase, % of control: higher = more reporter protein produced
- Active means: 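Active when the median/MAD z-score for overall luciferase is greater than 3; a gene was taken forward for validation with new siRNAs if at least two of its three siRNAs passed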
- Calls: active = raised luciferase; inactive = no rise
This is one part, drawn at random, of about 59,000 reagents. About 1,510 of all reagents (2.6%) were called active. 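Calls use total luciferase alone and ignore viability, so some active siRNAs may act by altering cell number.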 The numbers tell different reagents against one gene apart. Further read-outs or replicates are left out here.

With MYOM3 (GeneID 127294) #1, what does the deposit list?
total luciferase, z-score: -0.374; total luciferase, % of control: 74.4; call: inactive

How did the screen score MYOM3 (GeneID 127294) #2?
total luciferase, z-score: -0.575; total luciferase, % of control: 70.4; call: inactive

For MYOM3 (GeneID 127294) #3, how do the results read?
total luciferase, z-score: -1.17; total luciferase, % of control: 58.6; call: inactive

With SLC12A7 (GeneID 10723) #1, how do the results read?
total luciferase, z-score: -0.877; total luciferase, % of control: 64.5; call: inactive

How did the screen score SLC12A7 (GeneID 10723) #2?
total luciferase, z-score: -0.869; total luciferase, % of control: 64.6; call: inactive

For SLC12A7 (GeneID 10723) #3, how do the results read?
total luciferase, z-score: 2; total luciferase, % of control: 122; call: inactive

What is on record for NEGR1 (GeneID 257194) #1?
total luciferase, z-score: -2.1; total luciferase, % of control: 40.2; call: inactive

With NEGR1 (GeneID 257194) #2, what does the deposit list?
total luciferase, z-score: -2.96; total luciferase, % of control: 23; call: inactive

With NEGR1 (GeneID 257194) #3, how do the results read?
total luciferase, z-score: -0.402; total luciferase, % of control: 73.9; call: inactive

What did the screen give for PGM5 (GeneID 5239) #1?
total luciferase, z-score: -0.214; total luciferase, % of control: 77.6; call: inactive

For PGM5 (GeneID 5239) #2, what does the deposit list?
total luciferase, z-score: 3.14; total luciferase, % of control: 144; call: active

For PGM5 (GeneID 5239) #3, what was measured?
total luciferase, z-score: 1.52; total luciferase, % of control: 112; call: inactive

With CXXC1 (GeneID 30827) #1, what was measured?
total luciferase, z-score: 0.98; total luciferase, % of control: 101; call: inactive

How did the screen score CXXC1 (GeneID 30827) #2?
total luciferase, z-score: 0.991; total luciferase, % of control: 102; call: inactive

How did the screen score CXXC1 (GeneID 30827) #3?
total luciferase, z-score: 3.02; total luciferase, % of control: 142; call: active

Called active, of those listed so far:
PGM5 (GeneID 5239) #2: total luciferase, z-score = 3.14; total luciferase, % of control = 144; call = active
CXXC1 (GeneID 30827) #3: total luciferase, z-score = 3.02; total luciferase, % of control = 142; call = active

The results go on.
Which result is listed for PLEKHB2 (GeneID 55041) #1?
total luciferase, z-score: 0.406; total luciferase, % of control: 90; call: inactive

What did the screen give for PLEKHB2 (GeneID 55041) #2?
total luciferase, z-score: 0.206; total luciferase, % of control: 86; call: inactive

For PLEKHB2 (GeneID 55041) #3, what does the deposit list?
total luciferase, z-score: 1.31; total luciferase, % of control: 108; call: inactive

For KCNH5 (GeneID 27133) #1, how do the results read?
total luciferase, z-score: -0.116; total luciferase, % of control: 79.6; call: inactive

How did the screen score KCNH5 (GeneID 27133) #2?
total luciferase, z-score: -0.135; total luciferase, % of control: 79.2; call: inactive

What did the screen give for KCNH5 (GeneID 27133) #3?
total luciferase, z-score: -1.43; total luciferase, % of control: 53.4; call: inactive

What did the screen give for NAB1 (GeneID 4664) #1?
total luciferase, z-score: -1.66; total luciferase, % of control: 48.9; call: inactive

Which result is listed for NAB1 (GeneID 4664) #2?
total luciferase, z-score: -1.04; total luciferase, % of control: 61.1; call: inactive

With NAB1 (GeneID 4664) #3, how do the results read?
total luciferase, z-score: 1.22; total luciferase, % of control: 106; call: inactive

What did the screen give for CCDC71L (GeneID 168455) #1?
total luciferase, z-score: 0.254; total luciferase, % of control: 86.9; call: inactive

Which result is listed for CCDC71L (GeneID 168455) #2?
total luciferase, z-score: 0.0802; total luciferase, % of control: 83.5; call: inactive

What did the screen give for CCDC71L (GeneID 168455) #3?
total luciferase, z-score: 0.394; total luciferase, % of control: 89.7; call: inactive

For NCOA4P4 (GeneID 642262) #1, what was measured?
total luciferase, z-score: 1.33; total luciferase, % of control: 108; call: inactive

For NCOA4P4 (GeneID 642262) #2, what does the deposit list?
total luciferase, z-score: -2.14; total luciferase, % of control: 39.2; call: inactive

For NCOA4P4 (GeneID 642262) #3, what does the deposit list?
total luciferase, z-score: -0.00144; total luciferase, % of control: 81.9; call: inactive

With SND1 (GeneID 27044) #1, what does the deposit list?
total luciferase, z-score: 0.23; total luciferase, % of control: 86.5; call: inactive

With SND1 (GeneID 27044) #2, how do the results read?
total luciferase, z-score: 0.611; total luciferase, % of control: 94; call: inactive

For SND1 (GeneID 27044) #3, what does the deposit list?
total luciferase, z-score: -0.957; total luciferase, % of control: 62.9; call: inactive
